Results are given in words; binding and its absence hold for the method and conditions named. Binding can be weak; no strength is given. Tags and fused reporters may be left off the sequences shown.
Assays:
[1] = target: GST-PfAKAL (P. falciparum A Kinase anchoring protein-like fused to GST) (Plasmodium falciparum) (UniProt Q8I3X8); assay: pull-down; GST fusion protein (or GST) on glutathione beads incubated in a solution of purified (His)6-tagged recombinant protein; beads washed in RIPA buffer; SDS-PAGE and anti-polyhistidine western blot; GST-PfAKAL with (His)6-Pf14-3-3I also with or without 5 mM 3'-5'AMP; both purified
[2] = target: GST-PfPKA-R (Plasmodium falciparum); assay: as above

By UniProt entry, the sequences of proteins in these tests, tags left out. Where a name states a change or a piece, a line headed by the entry shows the natural chain unless it says otherwise.
UniProt Q8I3X8: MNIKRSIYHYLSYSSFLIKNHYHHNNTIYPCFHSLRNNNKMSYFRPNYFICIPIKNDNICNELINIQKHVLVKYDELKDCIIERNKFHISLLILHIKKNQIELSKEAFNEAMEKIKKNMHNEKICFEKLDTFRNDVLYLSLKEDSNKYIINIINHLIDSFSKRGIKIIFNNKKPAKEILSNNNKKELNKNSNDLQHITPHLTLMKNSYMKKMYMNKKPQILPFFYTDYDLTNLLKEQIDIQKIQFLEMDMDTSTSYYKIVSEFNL

B1: (His)6-Pf14-3-3I (natural protein, Plasmodium falciparum, UniProt C0H4V6 1-262, looked up)
chain: MATSEELKQLRCDCTYRSKLAEQAERYDEMADAMRTLVEQCVNNDKDELTVEERNLLSVAYKNAVGARRASWRIISSVEQKEMSKANVHNKNVAATYRKKVEEELNNICQDILNLLTKKLIPNTSESESKVFYYKMKGDYYRYISEFSCDEGKKEASNCAQEAYQKATDIAENELPSTHPIRLGLALNYSVFFYEILNQPHQACEMAKRAFDDAITEFDNVSEDSYKDSTLIMQLLRDNLTLWTSDLQGDQTEEKSKDEGLE
notes: 14-3-3I protein, Plasmodium falciparum, PlasmoDB MAL8P1.69/PF3D7_0818200; amplified from a P. falciparum cDNA library with primers from the start to the stop codon, cloned into pRSFDuet; recombinant protein 30 kDa; source: E. coli BL21 Codon Plus, purified (Ni-NTA-agarose)
With B1 the binding [1] was “binds” and the binding [2] was “binds”.
